According to paper PMC7819943, “Rice protein-binding microarrays: a tool to detect cis-acting elements near promoter regions in rice”:
The other results are listed elsewhere or left out.

target: T1, OsSMF1 (Oryza sativa, UniProt Q6ZLB0 1-436); assay: protein-binding microarray (RPBM); PBS, 2% BSA, 51.3 ng/ul salmon testes DNA, 50 uM zinc acetate, 200 nM TF, 25 C, 1 h; high values mean tight binding; settings: protein: recombinant; tags: N-terminal polyhistidine and DsRed monomer fusion (pET32a); chain copies: 2; label: CyDye5-dUTP incorporated in the synthesized complementary strand; 3' TTTTT single-stranded linker to array surface; dsDNA, one strand shown
T1 sequence: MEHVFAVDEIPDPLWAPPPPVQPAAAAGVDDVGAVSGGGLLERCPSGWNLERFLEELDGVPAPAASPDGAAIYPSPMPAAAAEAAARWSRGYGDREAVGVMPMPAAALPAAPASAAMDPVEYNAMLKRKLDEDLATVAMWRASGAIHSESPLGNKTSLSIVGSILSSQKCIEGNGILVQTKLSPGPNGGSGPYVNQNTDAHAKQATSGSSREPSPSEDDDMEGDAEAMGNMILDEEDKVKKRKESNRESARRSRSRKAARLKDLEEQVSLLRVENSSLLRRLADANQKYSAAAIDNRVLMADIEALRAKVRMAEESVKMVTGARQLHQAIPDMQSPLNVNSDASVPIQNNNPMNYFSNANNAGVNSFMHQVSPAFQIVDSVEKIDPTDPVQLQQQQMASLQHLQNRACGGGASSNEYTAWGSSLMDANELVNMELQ
Method in brief: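 Transcription factors, each fused N-terminally to a polyhistidine tag and DsRed, were expressed in E. coli BL21-CodonPlus and purified on Ni–NTA. A custom Agilent array was made double-stranded by primer extension with Cy5-dUTP and blocked with 2% BSA. It was incubated with 200 nM protein in PBS, 2% BSA, salmon testes DNA and 50 µM zinc acetate at 25 °C for 1 h, then washed. The binding signal is per-feature fluorescence intensity (arbitrary units) read on an Axon 4000B scanner.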

Sequence | binding signal
TCCAAATAGAGTTTAATAATTTGTTTCCTATACTTCCTACCGGAGTCACCTAGTGCAG | 28800 fluorescence intensity (a.u.)
AGCTTAGCTTAGCTTAGCTTGCTTACGTCCACACTACTTTCGGAGTCACCTAGTGCAG | 3320 fluorescence intensity (a.u.)
TGAAGGAAGTAAAAGAAGTTGTAGTGGTGTGTGATCCAGACGGAGTCACCTAGTGCAG | 3220 fluorescence intensity (a.u.)
GCCGACTTGCGCGCCGCCTTGGTCGCCAGCTGTTTCCTCGCGGAGTCACCTAGTGCAG | 3520 fluorescence intensity (a.u.)
ATCGGCAAACGCGTTCCACCAAAACCCTCCACGTCAGCATCGGAGTCACCTAGTGCAG | 29800 fluorescence intensity (a.u.)
CACGATGATGATGTAGGTGTATCTGCCTGCCCCTCGTCGCCGGAGTCACCTAGTGCAG | 3450 fluorescence intensity (a.u.)
CCTACACATATATATATATATATGCATGGCAACTTGGCAACGGAGTCACCTAGTGCAG | 3340 fluorescence intensity (a.u.)
CAAACCCTAGCTCATATGGTTGTAGTCTTAGCTACTATCACGGAGTCACCTAGTGCAG | 50500 fluorescence intensity (a.u.)
CCCCTTCATGCCAGCACGCTCCCCACATCCACCCACCACCCGGAGTCACCTAGTGCAG | 3320 fluorescence intensity (a.u.)
CTGTTTGATTCTTCAGTGGTATGATGTGTAGATGTAGTCCCGGAGTCACCTAGTGCAG | 4580 fluorescence intensity (a.u.)
GGATTTAACACTAGAGACCCTAATTTTGCTGCTCAGGCGACGGAGTCACCTAGTGCAG | 28500 fluorescence intensity (a.u.)
ATTCGCCCAAACGCCACTCTTAACACGTGGGTATTCGCTGCGGAGTCACCTAGTGCAG | 3790 fluorescence intensity (a.u.)
TGATCCTAAGAATTGCCATAGATTACGTGAGTTGCATCACCGGAGTCACCTAGTGCAG | 3520 fluorescence intensity (a.u.)
ACAAATGGATTAATGACTGTTTGACTCGCTTGCTCACTAGCGGAGTCACCTAGTGCAG | 3410 fluorescence intensity (a.u.)
GCGGTGTCTCATCGTCCTCGCCGCCGCCTCGTCAGTCGTCCGGAGTCACCTAGTGCAG | 3970 fluorescence intensity (a.u.)
CGATCGATGGGGATGTGGGGTGTGTTAGTTCCTTCGTCTTCGGAGTCACCTAGTGCAG | 3150 fluorescence intensity (a.u.)
GGACCGGAACGCCGTGACGTGCAACGCCATGCTCGCCGGGCGGAGTCACCTAGTGCAG | 5860 fluorescence intensity (a.u.)
TTCCCACCCGCCGGCCGGCTTGCCCTGAGAGGAGAAAATGCGGAGTCACCTAGTGCAG | 3250 fluorescence intensity (a.u.)
TGGGATATTGGTAGGCTGGTAGCTACTCCGTAGATTTGACCGGAGTCACCTAGTGCAG | 29100 fluorescence intensity (a.u.)
GCATATGAAGGTGAAATGCTGAGCATACGTTTGCTATTTTCGGAGTCACCTAGTGCAG | 4370 fluorescence intensity (a.u.)
AAGTTATAACCCACTACATACAAAGATACCACGTCATCATCGGAGTCACCTAGTGCAG | 15900 fluorescence intensity (a.u.)

Sequence | binding signal
AGTGAGTGGTGGAGGGTTGTGATTGGATGAGTAGTGAAGGCGGAGTCACCTAGTGCAG | 4240 fluorescence intensity (a.u.)
CTCCACCATTGCCCATCTCCACGCTGCAGTGCTTGCTCCCCGGAGTCACCTAGTGCAG | 3360 fluorescence intensity (a.u.)
TTCGTGGCGGCTCCTCCTGTGCCATGGCCGCCGATGGTGACGGAGTCACCTAGTGCAG | 3320 fluorescence intensity (a.u.)
ATATTTGATTAGATCGGTAATGGATGGCTATAACGTATGCCGGAGTCACCTAGTGCAG | 21600 fluorescence intensity (a.u.)
GAAGGAAGGACTAACGCCTGGACACGTCACTACCTCACCCCGGAGTCACCTAGTGCAG | 19800 fluorescence intensity (a.u.)
ACATTATGCACTACCCTCGTGACACTGACATACATAATCTCGGAGTCACCTAGTGCAG | 4010 fluorescence intensity (a.u.)
GGCTACACATGTGGATGAGGACGTGGCACCGAATATGCCGCGGAGTCACCTAGTGCAG | 15700 fluorescence intensity (a.u.)
ACGGAGGGTGTAATAATCAATCAATCCTATGTTAATTGTTCGGAGTCACCTAGTGCAG | 3480 fluorescence intensity (a.u.)
GCGTGAGGATCAGTGAGCTGTGCGGCTCTCTTTTCTTGTTCGGAGTCACCTAGTGCAG | 3300 fluorescence intensity (a.u.)
TCTCCGCCGACCTCGTCGTCGTCGGCGTCCTCATCCAGGCCGGAGTCACCTAGTGCAG | 3710 fluorescence intensity (a.u.)
TTCCAGCTCCCCGCCGACTGCAACGTCGACGGCATCCGCGCGGAGTCACCTAGTGCAG | 4070 fluorescence intensity (a.u.)
CCACATGTCAGGATGCCACGTCATCTCTCTTTCCCCTCTTCGGAGTCACCTAGTGCAG | 33600 fluorescence intensity (a.u.)
TTTTCGCCGCCAGCGCAGATGCTTCATCTTCATTGGCCTTCGGAGTCACCTAGTGCAG | 3200 fluorescence intensity (a.u.)
ATTGTGATGAACAGCAAGTTAAAGGTTGGGCATTATAGTGCGGAGTCACCTAGTGCAG | 20200 fluorescence intensity (a.u.)
TGGTACGTGGGCAGCGCCTCCTCCGTCACCATGTTCCCTACGGAGTCACCTAGTGCAG | 4880 fluorescence intensity (a.u.)
TTATGTGTCTATGATACGTGGACGCAGTGGTAAATCCTTTCGGAGTCACCTAGTGCAG | 4700 fluorescence intensity (a.u.)
TGGGCCTTATCGGCCGTGACGGCCCATTACAACTCAGCGCCGGAGTCACCTAGTGCAG | 3600 fluorescence intensity (a.u.)
TTATATCGTTTTAATTTCAATTAAACTTTCAATTTTAGTGCGGAGTCACCTAGTGCAG | 48400 fluorescence intensity (a.u.)
AACCAGATTTAAGAGTAAATTACATCAGCGGTACACAAACCGGAGTCACCTAGTGCAG | 3390 fluorescence intensity (a.u.)
ATGATCGTGCGGTTGATCCATCGCCGCGCGGTTCACGCGCCGGAGTCACCTAGTGCAG | 3990 fluorescence intensity (a.u.)
CGCCACTGCCTATTCTATCTATATCGTGTGCACTTGAGGTCGGAGTCACCTAGTGCAG | 3370 fluorescence intensity (a.u.)

Reprinted from the results shown (8 entries):
Sequence | binding signal
GGCTACACATGTGGATGAGGACGTGGCACCGAATATGCCGCGGAGTCACCTAGTGCAG | 15700 fluorescence intensity (a.u.)
ACGGAGGGTGTAATAATCAATCAATCCTATGTTAATTGTTCGGAGTCACCTAGTGCAG | 3480 fluorescence intensity (a.u.)
GCGTGAGGATCAGTGAGCTGTGCGGCTCTCTTTTCTTGTTCGGAGTCACCTAGTGCAG | 3300 fluorescence intensity (a.u.)
TCTCCGCCGACCTCGTCGTCGTCGGCGTCCTCATCCAGGCCGGAGTCACCTAGTGCAG | 3710 fluorescence intensity (a.u.)
TTCCAGCTCCCCGCCGACTGCAACGTCGACGGCATCCGCGCGGAGTCACCTAGTGCAG | 4070 fluorescence intensity (a.u.)
CCACATGTCAGGATGCCACGTCATCTCTCTTTCCCCTCTTCGGAGTCACCTAGTGCAG | 33600 fluorescence intensity (a.u.)
TTTTCGCCGCCAGCGCAGATGCTTCATCTTCATTGGCCTTCGGAGTCACCTAGTGCAG | 3200 fluorescence intensity (a.u.)
ATTGTGATGAACAGCAAGTTAAAGGTTGGGCATTATAGTGCGGAGTCACCTAGTGCAG | 20200 fluorescence intensity (a.u.)
